From patent US20220125897A1, “Antithrombin-III Treatment of Traumatic Brain Injury” (THE TRUSTEES OF THE UNIVERSITY OF PENNSYLVANIA, priority 2020, published 2022)

Tested on: CD1 mice, controlled cortical impact (CCI) or sham craniotomy
Assay: Brain water content (brain edema, wet-to-dry ratio)
Type: in vivo
Details: 48 hours
Procedure: Procedures received approval from the University of Pennsylvania Institutional Animal Care and Use Committee. CD1 adult male mice (25-30 g) (Charles River Laboratories; Wilmington, Mass.) were acclimated in standard housing with ad libitum water and chow for 5 days before experiments and immediately after recovery from brain injury. Mice underwent controlled cortical impact (CCI) or sham craniotomy (SHAM) and then received one of three agents: 1) subcutaneous enoxaparin (ENX, 1.5 mg/kg) (Winthrop, Sanofi-Aventis; Bridgewater, N.J.); intravenous (femoral vein) pharmaceutical grade antithrombin-III (AT-III, 250 IU/kg, donated by Grifols S.A. (Durham, N.C.); or 3) an equal volume of IV normal saline (0.9% NS, Baxter; Deerfield, Ill.). Doses were administered 0.5 and 24 hours after the CCI (FIG. 1).
Seventy-one (71) mice were randomly assigned to one of six groups: 1) sham craniotomy and vehicle (VH, 0.9% normal saline, Baxter Healthcare Corporation; Deerfield, Ill.), (SHAM +VEH, n=9); 2) sham craniotomy and ENX (SHAM+ENX, n=8); 3) sham craniotomy and AT-III (SHAM+AT-III, n=9); 4) TBI and vehicle (CCI+VEH, n=19); TBI and ENX (CCI+ENX, n=13); and 6) TBI and AT-III (CCI+AT-III, n=13).
CCI was used to replicate TBI through a well-validated rodent model (16, 17). Briefly, on day 1, mice were anesthetized with intraperitoneal ketamine (Hospira; Lake Forest, Ill.), xylazine (Alcorn; Decatur, Ill.), and acepromazine (Boehringer Ingelheim; St. Joseph, Mo.) (KXA: 100, 10, 1 mg/kg, respectively) and place prone in a stereotactic device. After scalp exposure, a left-sided 4-mm craniotomy was created between bregma and lambda structures using a dental drill (Henry Schein; Melville, N.Y.) without violating the dura.
Forty-eight hours after CCI, mice were sacrificed and excised brains were separated into injured (ipsilateral) and uninjured (contralateral) hemispheres. Wet weight (WW) was immediately assessed. Dry weight (DW) was assessed after 72 hours of dehydration at 70° C. Tissue water content was calculated using wet-to-dry ratios: % water content=100×(WW−DW)/WW.

Row | Substance | Contralateral (%) Mean brain water content [%] | Contralateral (%) Median brain water content [%] | Ipsilateral (%) Mean brain water content [%] | Ipsilateral (%) Median brain water content [%] | Ratio (ipsi/contra) brain water content
1 | antithrombin-III [AT-III] | 77.78 | 77.84 | 77.67 | 77.69 | 0.998
2 | enoxaparin [ENX, reference compound] | 77.5164 | 77.68 | 77.4716 | 77.7 | 0.999
